The values below come from PMC5691081.

Protein sequences, listed by entry. Tags and fused reporters are not part of them.
UniProt Q9NSV4: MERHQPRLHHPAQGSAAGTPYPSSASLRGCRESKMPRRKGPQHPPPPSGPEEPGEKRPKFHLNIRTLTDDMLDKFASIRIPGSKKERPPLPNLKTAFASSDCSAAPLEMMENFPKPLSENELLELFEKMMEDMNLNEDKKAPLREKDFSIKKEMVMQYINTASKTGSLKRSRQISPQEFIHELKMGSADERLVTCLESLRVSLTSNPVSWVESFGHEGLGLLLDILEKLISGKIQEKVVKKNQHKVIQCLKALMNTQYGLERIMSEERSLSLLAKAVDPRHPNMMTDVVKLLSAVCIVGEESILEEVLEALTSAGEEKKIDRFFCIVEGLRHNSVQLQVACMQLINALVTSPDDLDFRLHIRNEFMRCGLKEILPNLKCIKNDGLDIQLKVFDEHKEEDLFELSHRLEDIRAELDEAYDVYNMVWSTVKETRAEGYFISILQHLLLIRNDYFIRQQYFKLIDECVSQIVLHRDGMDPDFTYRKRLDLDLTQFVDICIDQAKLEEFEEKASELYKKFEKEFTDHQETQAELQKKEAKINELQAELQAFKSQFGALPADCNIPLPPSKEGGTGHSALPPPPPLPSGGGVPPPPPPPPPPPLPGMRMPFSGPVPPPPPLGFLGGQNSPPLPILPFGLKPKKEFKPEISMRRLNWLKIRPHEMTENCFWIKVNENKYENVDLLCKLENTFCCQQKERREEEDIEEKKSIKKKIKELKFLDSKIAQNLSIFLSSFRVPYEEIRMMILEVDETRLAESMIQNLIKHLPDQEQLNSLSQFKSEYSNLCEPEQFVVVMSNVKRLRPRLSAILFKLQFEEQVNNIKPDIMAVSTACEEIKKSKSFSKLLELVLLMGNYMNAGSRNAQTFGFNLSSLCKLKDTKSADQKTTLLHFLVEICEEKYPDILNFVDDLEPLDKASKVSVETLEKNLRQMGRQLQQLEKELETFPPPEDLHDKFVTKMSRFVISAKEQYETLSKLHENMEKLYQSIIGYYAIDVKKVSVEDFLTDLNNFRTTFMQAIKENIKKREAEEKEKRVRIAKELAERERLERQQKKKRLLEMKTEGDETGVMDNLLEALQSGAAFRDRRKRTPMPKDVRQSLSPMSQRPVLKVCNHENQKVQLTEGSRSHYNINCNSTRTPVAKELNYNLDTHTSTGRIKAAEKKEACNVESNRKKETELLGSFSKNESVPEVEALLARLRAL

One assay deals with T1, GFP-anillin-wt (human) (UniProt Q9NQW6).
T1 sequence: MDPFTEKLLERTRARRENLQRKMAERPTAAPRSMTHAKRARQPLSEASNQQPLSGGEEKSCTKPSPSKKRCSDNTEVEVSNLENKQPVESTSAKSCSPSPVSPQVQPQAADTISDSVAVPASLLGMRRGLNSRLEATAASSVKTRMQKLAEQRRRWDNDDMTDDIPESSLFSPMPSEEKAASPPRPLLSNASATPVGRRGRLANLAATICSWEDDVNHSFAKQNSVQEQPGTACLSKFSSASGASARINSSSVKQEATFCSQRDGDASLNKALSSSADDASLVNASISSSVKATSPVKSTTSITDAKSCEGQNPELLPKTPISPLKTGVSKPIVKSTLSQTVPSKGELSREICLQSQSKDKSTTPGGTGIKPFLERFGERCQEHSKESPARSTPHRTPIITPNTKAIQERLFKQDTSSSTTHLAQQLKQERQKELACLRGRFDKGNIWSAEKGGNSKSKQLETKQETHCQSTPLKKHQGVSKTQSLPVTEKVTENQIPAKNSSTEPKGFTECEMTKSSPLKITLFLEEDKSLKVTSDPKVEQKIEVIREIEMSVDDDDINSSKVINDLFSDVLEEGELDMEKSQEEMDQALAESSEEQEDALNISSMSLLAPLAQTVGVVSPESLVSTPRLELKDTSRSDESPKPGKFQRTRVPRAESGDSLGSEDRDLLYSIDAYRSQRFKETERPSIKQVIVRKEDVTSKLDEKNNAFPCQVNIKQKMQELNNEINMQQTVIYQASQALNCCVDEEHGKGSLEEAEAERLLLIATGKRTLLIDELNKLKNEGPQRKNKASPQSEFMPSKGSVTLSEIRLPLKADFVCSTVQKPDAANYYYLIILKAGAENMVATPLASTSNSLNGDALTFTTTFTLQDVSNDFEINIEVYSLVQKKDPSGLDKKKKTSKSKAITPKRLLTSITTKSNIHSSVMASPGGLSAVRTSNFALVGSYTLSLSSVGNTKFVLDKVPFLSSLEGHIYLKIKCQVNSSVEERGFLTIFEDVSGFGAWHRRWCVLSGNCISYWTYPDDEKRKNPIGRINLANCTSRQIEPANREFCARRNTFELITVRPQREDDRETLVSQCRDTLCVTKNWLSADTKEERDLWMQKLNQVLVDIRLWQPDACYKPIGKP
Kind of assay: co-IP; GFP-Trap beads, lysates of stable HeLa lines induced with 1 µg/ml Dox for 24 h; 1% Triton X-100, 150 mM NaCl, overnight at 4 °C; anti-DIAPH3 blot.

Assay [1] has as its target T2, GFP-anillin-RQPL(41–44)-AAAA (human) (UniProt Q9NQW6).
T2 sequence: T1 sequence with R41A, Q42A, P43A, L44A
The description is as above.

Numbering of substitutions follows the chain as printed. Results are given in words; binding and its absence hold for the method and conditions named. Binding seen in cells or lysates may run through a third protein. Some binding calls cover weakened binding; strength is not graded here. Where a sequence is shown, tags or fusion partners need not be part of it.

Consider “DIAPH3 (endogenous) (from UniProt Q9NSV4 1-1193)”, for which the binding entry in the assay with GFP-anillin-wt (human) is listed as “binds”; in assay [1], “binds weakly”.
